No constants are given. Whether binding was seen depends on the method and setting. Binding seen in cells or lysates may run through a third protein. Some entries that bind do so weakly or less than the wild type.
Molecular target: pyruvate kinase type M2 (PKM2) (human (endogenous in A549)) (UniProt P14618)
Assay: co-IP; endogenous proteins; A549 cell lysate pre-cleared with control IgG (legend: isolated exosome fraction from A549 cells); IP with anti-SNAP-23 or anti-PKM2 antibody or normal IgG, protein G-agarose; lysis buffer 20 mM Tris-HCl, 150 mM NaCl, 0.5% Nonidet P-40, 2 mM EDTA, 0.5 mM DTT, pH 7.4; blotted in a cross manner

The chains behind the UniProt entries cited, without tags or fusion partners.
UniProt P14618: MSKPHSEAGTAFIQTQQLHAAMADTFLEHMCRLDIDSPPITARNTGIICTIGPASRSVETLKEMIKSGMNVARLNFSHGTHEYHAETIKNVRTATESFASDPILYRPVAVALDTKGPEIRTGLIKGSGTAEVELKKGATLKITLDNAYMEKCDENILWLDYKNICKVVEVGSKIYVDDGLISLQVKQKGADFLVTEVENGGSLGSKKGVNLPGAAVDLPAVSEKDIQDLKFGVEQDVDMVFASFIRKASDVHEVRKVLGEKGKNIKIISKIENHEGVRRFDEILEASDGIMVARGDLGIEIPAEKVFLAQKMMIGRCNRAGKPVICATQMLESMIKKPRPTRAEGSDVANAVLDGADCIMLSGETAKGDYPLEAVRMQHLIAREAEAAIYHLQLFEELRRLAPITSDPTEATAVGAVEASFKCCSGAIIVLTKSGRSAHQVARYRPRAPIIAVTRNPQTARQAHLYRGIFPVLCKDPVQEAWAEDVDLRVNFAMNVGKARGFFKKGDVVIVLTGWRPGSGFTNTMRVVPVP

binding: binds
B1: synaptosome-associated protein 23 (SNAP-23) (protein, UniProt O00161 1-211)
chain: MDNLSSEEIQQRAHQITDESLESTRRILGLAIESQDAGIKTITMLDEQKEQLNRIEEGLDQINKDMRETEKTLTELNKCCGLCVCPCNRTKNFESGKAYKTTWGDGGENSPCNVVSKQPGPVTNGQLQQPTTGAASGGYIKRITNDAREDEMEENLTQVGSILGNLKDMALNIGNEIDAQNPQIKRITDKADTNRDRIDIANARAKKLIDS
